Test results taken from PubChem BioAssay AID493014 (National Center for Advancing Translational Sciences (NCATS), 2011).
The list shows a part of the results. Further columns of the screen follow, without active or inactive calls. Compounds called inactive in the main read-out are mostly missing here. Potencies come from curve fits of mixed quality, noted in brackets.

Experiment: qHTS Assay to Find Inhibitors of Chronic Active B-Cell Receptor Signaling
Conditions: ABC-DLBCL IkBa-CBG/CBR reporter, luminescence ratio (green luciferase fused to IkBa over red control in TMD8 lymphoma cells), 4 h
How it was run: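 Compounds up to 46 uM were incubated four hours with TMD8 cells whose green CBG68 luciferase is fused to IkappaBalpha; red CBR luminescence normalised the signal, and concentration-effect curves were fitted to fusion, red and ratio data.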

[1] = measured here: CBR red luminescence, cell number
[2] = measured here: IkBa-CBG green luminescence

CCCCc1ccc(NC(=O)C2CCCO2)cc1 (stereo not drawn)
AC50 [1]: 18.4 µM [falling, single point]

Cn1c(-c2ccc(C(C)(C)C)cc2)n[nH]c1=S
AC50 [1]: 0.58 µM [falling, partial curve]

O=C(Nc1ccc(Cl)cc1)C1=Cc2cc(Cl)ccc2OC1
AC50 [1]: 11.6 µM [rising, partial curve]

CC(=O)Nc1ccc(S(=O)(=O)N[C@@H](C)C(=O)OCc2ccc(Cl)cc2)cc1
AC50 [1]: 13 µM [rising, partial curve, poor fit]

Nc1c(C(=O)NCC2CCCO2)sc2nc3c(c(-c4ccco4)c12)CC/C3=C\c1ccco1 (stereo not drawn)
AC50 [1]: 9.2 µM [falling, partial curve]

Cn1c(N)c(C(=O)Nc2ccccc2F)sc1=S
AC50 [1]: 11.2 µM [falling, partial curve, poor fit]

O=C(c1cccc2c1-c1ccccc1C2)N1CCCCC1
AC50 [1]: 8.91 µM [rising, partial curve, poor fit]

O=C(Nc1ccc(F)cc1F)c1ccc2ncsc2c1
AC50 [1]: 14.1 µM [falling, partial curve]

CC1(C)NC(=O)N(CCCCOc2ccc(Cl)cc2C=O)C1=O
AC50 [2]: 25.1 µM [falling, single point]

Cc1csc(SCC(=O)Nc2c(C)n(C)n(-c3ccccc3)c2=O)n1
AC50 [1]: 0.0058 µM [falling, full curve, poor fit]

OCCCc1nc2n(n1)C(c1ccccc1)C=C(c1ccc(F)cc1)N2 (stereo not drawn)
AC50 [1]: 11.6 µM [falling, single point]

CN(CC(=O)Nc1ccc(F)cc1)C(=O)COC(=O)CSc1ccc(F)cc1
AC50 [1]: 4.61 µM [falling, full curve, poor fit]

Cc1nn(-c2nnc(NC3CCCCC3)nn2)c(C)c1Br
AC50 [1]: 9.2 µM [falling, partial curve]

COC(=O)c1ccc2c(=O)n(CCCCCC(=O)N3CCN(c4cccc(C)c4C)CC3)c(=O)[nH]c2c1
AC50 [1]: 35.5 µM [falling, single point]

COc1ccc(/C=N/NC(=O)c2cccc(NC(=O)c3ccc(F)cc3)c2)c(C(=O)O)c1OC
AC50 [1]: 1.26 µM [falling, full curve, poor fit]

COc1cccc(NC(=O)C2CCCN2C(=O)Nc2cccc(F)c2)c1 (stereo not drawn)
AC50 [1]: 8.2 µM [rising, partial curve, poor fit]

Cc1cc(-c2ccc(Cl)s2)n[nH]1
AC50 [1]: 2.82 µM [rising, partial curve, poor fit]

NC(=O)c1ccsc1NC(=O)c1ccc(S(=O)(=O)N2CCCCC2)cc1
AC50 [1]: 29.1 µM [falling, single point]

Cc1cc(C)nc(NC(=O)c2c(-c3ccccc3Cl)noc2C)c1
AC50 [1]: 18.4 µM [falling, partial curve, poor fit]
AC50 [2]: 23.1 µM [rising, partial curve, poor fit]

COc1ccc(NC(=O)c2ccc3c(c2)C(=O)N(Cc2ccncc2)C3=O)cc1S(N)(=O)=O
AC50 [1]: 18.4 µM [rising, single point]

CC1(C)C2CC=C(/C=N/NC(=O)c3ccccc3Br)C1C2 (stereo not drawn)
AC50 [1]: 14.6 µM [falling, partial curve, poor fit]

Cc1cccnc1Nc1nc(-c2ccccc2)cs1
AC50 [1]: 11.2 µM [falling, partial curve, poor fit]

O=C(Nc1nc2c(s1)CCc1ccccc1-2)c1cccs1
AC50 [1]: 15.8 µM [falling, single point]

Cc1cccc2cc(C#N)c(SCC#N)nc12
AC50 [1]: 2.82 µM [falling, full curve, poor fit]

O=C(Nc1sc2c(c1C(=O)O)CCC2)c1cccc(Cl)c1
AC50 [1]: 0.282 µM [falling, full curve]

O=C(N/N=C/c1cccs1)C(O)c1ccccc1 (stereo not drawn)
AC50 [1]: 17.8 µM [falling, single point]

CSCC[C@H](N)C(=O)NC[C@H]1CC[C@H](C(=O)N[C@@H](Cc2ccccc2)C(=O)O)CC1
AC50 [1]: 14.1 µM [rising, single point]

O=C(Nc1ccc(S(=O)(=O)N2CCCCCC2)cc1)C1CCCO1 (stereo not drawn)
AC50 [1]: 23.1 µM [rising, partial curve]

Cc1nc(NC(=O)c2ccccc2)sc1C
AC50 [1]: 15.8 µM [falling, single point]

N#Cc1ccccc1NC(=O)COC(=O)CN1C(=O)C2CCCCC2C1=O (stereo not drawn)
AC50 [1]: 3.66 µM [rising, full curve, poor fit]

CCOC(=O)c1nnn(-c2nonc2N)c1-c1cccc2ccccc12
AC50 [1]: 14.6 µM [falling, partial curve, poor fit]

COc1cccc2oc3cc(C#CC4(O)CCCCC4)ccc3c(=O)c12
AC50 [1]: 7.08 µM [falling, partial curve]
AC50 [2]: 3.98 µM [rising, full curve]

COc1cc(/C=N/Nc2nncc3ccccc23)cc(OC)c1OC
AC50 [1]: 12.6 µM [falling, partial curve]

COc1cccc(-c2nc(-c3ccc(NC(=O)c4cccs4)cc3)no2)c1
AC50 [1]: 1.41 µM [rising, partial curve, poor fit]

COC(=O)C1=C(C)N(c2ccc(F)cc2)C(=O)C1
AC50 [1]: 6.51 µM [falling, partial curve]

S=C(Nc1ccc(Oc2ccccc2)cc1)NC1CCCCC1
AC50 [1]: 25.9 µM [falling, single point]

CN(CC(=O)Nc1ccc(N2CCOCC2)cc1)CC(=O)Nc1ccccc1[N+](=O)[O-]
AC50 [1]: 5.8 µM [rising, partial curve, poor fit]

COc1ccccc1NC(=O)C(=O)/C=C(\O)c1ccccc1
AC50 [1]: 11.2 µM [falling, partial curve]

CC(C)CN(CC(C)C)C(=O)Nc1ccccc1F
AC50 [1]: 35.5 µM [rising, single point]

O=C(Nc1ccc2nccnc2c1)Nc1ccccc1Cl
AC50 [1]: 4.47 µM [falling, full curve]

O=C1CCC(C(=O)N(Cc2ccco2)C2(C(=O)NC3CCCC3)CCCCC2)N1 (stereo not drawn)
AC50 [1]: 29.1 µM [rising, single point]

O=C(c1ccco1)c1nc2c(n1O)CCCCC2
AC50 [1]: 0.103 µM [falling, full curve, poor fit]

O=C(NC(=S)Nc1ccc2c(c1)OCCO2)c1ccco1
AC50 [1]: 17.8 µM [falling, single point]

COc1nccnc1NS(=O)(=O)c1ccc(NC(=S)NC(=O)c2cccc(F)c2)cc1
AC50 [2]: 20.6 µM [rising, partial curve, poor fit]

C=C(C)C(=O)OC1(C(F)(F)F)Oc2cc(C)ccc2NC1=O (stereo not drawn)
AC50 [1]: 14.1 µM [falling, single point]

CC1CCCN(C2(O)C(=O)Nc3ccc(Br)cc32)C1 (stereo not drawn)
AC50 [1]: 8.91 µM [rising, partial curve, poor fit]

Cc1cc(NC(=O)CSc2nnc(C)c(=O)n2N)no1
AC50 [1]: 14.1 µM [falling, single point]

N/C(=N\OC(=O)c1ccco1)c1ccc(Cl)cc1
AC50 [1]: 10 µM [rising, single point]

CN(CC(=O)Nc1cccc(C#N)c1)S(=O)(=O)c1cc2c(cc1Cl)NC(=O)CO2
AC50 [1]: 0.891 µM [rising, full curve, poor fit]

O=C(O)c1ccccc1-c1ccccc1C(=O)Nc1cccc(-c2nc3ccccc3o2)c1
AC50 [1]: 35.5 µM [falling, single point]

COC(=O)C1=C(C)N(c2cccc(Cl)c2)C(=O)C1
AC50 [1]: 1.46 µM [falling, partial curve, poor fit]

COC(=O)c1c(NC(NC(=O)C(C)C)C(Cl)(Cl)Cl)sc2c1CCC2 (stereo not drawn)
AC50 [1]: 11.6 µM [falling, partial curve, poor fit]
AC50 [2]: 18.4 µM [rising, partial curve, poor fit]

C/C(=N/NC(=O)c1cc(C2CC2)[nH]n1)c1cccs1
AC50 [1]: 25.9 µM [falling, partial curve]

O=C(COC(=O)CCNS(=O)(=O)c1ccccc1F)Nc1nnc(-c2ccccc2)o1
AC50 [1]: 2.91 µM [falling, full curve]

Cc1ccccc1N1C(=O)CC(Sc2nnc(-c3ccccc3)o2)C1=O (stereo not drawn)
AC50 [1]: 35.5 µM [falling, single point]

O=C(Nc1cccc(S(=O)(=O)N2CCCCC2)c1)c1ccc([N+](=O)[O-])o1
AC50 [1]: 22.4 µM [falling, single point]

O=C1COc2ccccc2N1Cc1ccccc1Cl
AC50 [1]: 20 µM [rising, single point]

Cc1ccc(C2=NN3C(=O)c4ccccc4C3C2)cc1 (stereo not drawn)
AC50 [1]: 0.112 µM [rising, full curve, poor fit]

O=C(CN1CCOCC1)NCc1ccccc1Cl
AC50 [1]: 2.24 µM [rising, partial curve]

CCOC(=O)C1(Cc2cccc(Cl)c2)CCCN(C(=O)c2cc(C(C)C)nn2C)C1 (stereo not drawn)
AC50 [1]: 11.2 µM [falling, single point]

CCc1ccc(C(=O)NNC(=O)OC)cc1
AC50 [1]: 7.94 µM [rising, partial curve, poor fit]

CCc1nnc(NC(=O)c2ccc(-c3ccccc3Cl)o2)s1
AC50 [1]: 1.84 µM [rising, full curve, poor fit]

O=C(Cc1ccc(Cl)c(Cl)c1)Nc1cccc2ncccc12
AC50 [1]: 22.4 µM [falling, single point]

C/C(Cn1cnc([N+](=O)[O-])n1)=N\NC(=O)c1ccc(O)cc1O
AC50 [1]: 1.41 µM [falling, full curve, poor fit]

CC1Sc2ccc(S(=O)(=O)CCC(=O)NCc3ccc(Cl)cc3)cc2NC1=O (stereo not drawn)
AC50 [1]: 7.94 µM [falling, partial curve, poor fit]
